Earlier results as cited in patent US20210308030A1, “SYSTEM, METHODS AND KITS FOR DIAGNOSIS AND TREATMENT OF FEMALE PATTERN HAIR LOSS” (Follea International, priority 2020, published 2021).
At least one structure is not confirmed: it was looked up by name or label, or the drawing left a doubt.

Experiments:
[1] = system: androgenetic alopecia (AGA) patients; settings: after 16 weeks of 5% minoxidil therapy
[2] = system: men; settings: 5% minoxidil
[3] = system: FPHL patients

Nc1cc(N2CCCCC2)nc(N)[n+]1[O-] [minoxidil]
patients who regrow hair [1]: 30-40% | patients who experience hair growth [2]: approximately 40% | FPHL patients who experience a moderate increase in hair regrowth ([3]; 2% minoxidil mono-therapy, topical): 13-20% | efficacy based on the average change in nonvellus hair count ([3]; 5% minoxidil compared with 2% minoxidil, clinical trials): better efficacy than 2% minoxidil
